For 27 molecules, binding results are on record in PMC7694386.

Chains of the proteins cited; added tags and fusions are not shown.
UniProt Q7KZF4: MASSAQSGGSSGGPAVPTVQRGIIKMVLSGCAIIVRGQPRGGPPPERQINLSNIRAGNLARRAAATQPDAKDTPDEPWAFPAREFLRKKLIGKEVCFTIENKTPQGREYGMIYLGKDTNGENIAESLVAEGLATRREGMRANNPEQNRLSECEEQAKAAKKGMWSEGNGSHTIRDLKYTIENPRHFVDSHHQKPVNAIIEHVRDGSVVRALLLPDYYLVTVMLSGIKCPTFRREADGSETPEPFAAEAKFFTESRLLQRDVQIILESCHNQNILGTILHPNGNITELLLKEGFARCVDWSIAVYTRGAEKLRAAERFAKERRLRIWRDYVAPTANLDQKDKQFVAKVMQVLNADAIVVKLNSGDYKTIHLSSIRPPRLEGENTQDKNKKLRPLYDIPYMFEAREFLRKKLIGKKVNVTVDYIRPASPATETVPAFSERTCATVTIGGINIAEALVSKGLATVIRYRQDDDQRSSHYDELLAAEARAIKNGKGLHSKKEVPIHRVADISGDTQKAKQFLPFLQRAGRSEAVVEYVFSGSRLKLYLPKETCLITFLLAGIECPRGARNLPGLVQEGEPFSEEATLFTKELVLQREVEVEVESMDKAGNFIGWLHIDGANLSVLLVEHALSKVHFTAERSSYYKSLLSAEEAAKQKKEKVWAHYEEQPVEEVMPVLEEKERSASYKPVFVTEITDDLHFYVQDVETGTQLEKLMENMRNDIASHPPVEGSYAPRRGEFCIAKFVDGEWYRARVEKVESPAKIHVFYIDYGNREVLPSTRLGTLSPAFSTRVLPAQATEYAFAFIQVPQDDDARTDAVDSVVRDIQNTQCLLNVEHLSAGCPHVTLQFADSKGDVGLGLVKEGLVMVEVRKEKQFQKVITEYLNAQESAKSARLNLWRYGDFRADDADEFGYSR
UniProt P28340: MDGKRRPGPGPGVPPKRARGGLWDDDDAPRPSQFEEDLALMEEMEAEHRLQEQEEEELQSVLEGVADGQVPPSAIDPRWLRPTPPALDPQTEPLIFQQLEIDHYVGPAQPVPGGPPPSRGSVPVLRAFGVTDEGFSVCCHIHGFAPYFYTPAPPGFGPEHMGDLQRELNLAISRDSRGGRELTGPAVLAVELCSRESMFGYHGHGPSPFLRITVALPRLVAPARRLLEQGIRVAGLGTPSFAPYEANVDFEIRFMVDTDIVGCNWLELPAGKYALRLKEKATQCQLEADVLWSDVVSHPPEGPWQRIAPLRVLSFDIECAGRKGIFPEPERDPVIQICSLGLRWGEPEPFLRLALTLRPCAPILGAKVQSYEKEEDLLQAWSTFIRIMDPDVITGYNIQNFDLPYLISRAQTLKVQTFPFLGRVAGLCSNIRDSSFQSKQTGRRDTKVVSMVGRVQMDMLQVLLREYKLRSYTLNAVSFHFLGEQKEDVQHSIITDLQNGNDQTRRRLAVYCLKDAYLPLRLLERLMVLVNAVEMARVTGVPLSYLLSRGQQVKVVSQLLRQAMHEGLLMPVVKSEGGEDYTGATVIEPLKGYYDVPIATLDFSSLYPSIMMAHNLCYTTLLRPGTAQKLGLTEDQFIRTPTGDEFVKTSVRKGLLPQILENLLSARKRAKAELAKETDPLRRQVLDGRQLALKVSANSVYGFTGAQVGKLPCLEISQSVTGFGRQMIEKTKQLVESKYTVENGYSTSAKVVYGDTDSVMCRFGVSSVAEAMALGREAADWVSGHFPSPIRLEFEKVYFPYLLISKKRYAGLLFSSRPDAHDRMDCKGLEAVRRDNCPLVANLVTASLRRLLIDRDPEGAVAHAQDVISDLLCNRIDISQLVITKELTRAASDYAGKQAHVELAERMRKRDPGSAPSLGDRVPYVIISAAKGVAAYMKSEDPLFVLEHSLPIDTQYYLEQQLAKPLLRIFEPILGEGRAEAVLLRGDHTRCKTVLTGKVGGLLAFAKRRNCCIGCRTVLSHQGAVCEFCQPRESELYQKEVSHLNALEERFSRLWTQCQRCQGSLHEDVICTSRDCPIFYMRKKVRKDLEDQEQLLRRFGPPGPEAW
UniProt O60826: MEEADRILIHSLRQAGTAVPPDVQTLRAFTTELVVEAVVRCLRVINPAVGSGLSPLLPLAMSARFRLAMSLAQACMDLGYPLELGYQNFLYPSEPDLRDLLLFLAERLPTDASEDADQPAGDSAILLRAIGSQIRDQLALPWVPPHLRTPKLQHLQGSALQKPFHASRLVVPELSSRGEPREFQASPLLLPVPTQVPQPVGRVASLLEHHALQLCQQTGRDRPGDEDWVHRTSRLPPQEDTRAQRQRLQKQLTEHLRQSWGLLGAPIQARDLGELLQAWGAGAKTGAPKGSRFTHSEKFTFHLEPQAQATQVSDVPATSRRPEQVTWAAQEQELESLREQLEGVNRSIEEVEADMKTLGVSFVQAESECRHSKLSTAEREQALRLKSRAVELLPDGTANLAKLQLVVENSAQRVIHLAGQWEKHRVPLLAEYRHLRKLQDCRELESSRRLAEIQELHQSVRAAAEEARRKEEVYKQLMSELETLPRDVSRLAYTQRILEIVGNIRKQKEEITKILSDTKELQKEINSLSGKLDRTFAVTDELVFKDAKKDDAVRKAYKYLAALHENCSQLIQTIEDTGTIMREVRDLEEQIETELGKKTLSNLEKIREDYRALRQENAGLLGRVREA
UniProt Q13620: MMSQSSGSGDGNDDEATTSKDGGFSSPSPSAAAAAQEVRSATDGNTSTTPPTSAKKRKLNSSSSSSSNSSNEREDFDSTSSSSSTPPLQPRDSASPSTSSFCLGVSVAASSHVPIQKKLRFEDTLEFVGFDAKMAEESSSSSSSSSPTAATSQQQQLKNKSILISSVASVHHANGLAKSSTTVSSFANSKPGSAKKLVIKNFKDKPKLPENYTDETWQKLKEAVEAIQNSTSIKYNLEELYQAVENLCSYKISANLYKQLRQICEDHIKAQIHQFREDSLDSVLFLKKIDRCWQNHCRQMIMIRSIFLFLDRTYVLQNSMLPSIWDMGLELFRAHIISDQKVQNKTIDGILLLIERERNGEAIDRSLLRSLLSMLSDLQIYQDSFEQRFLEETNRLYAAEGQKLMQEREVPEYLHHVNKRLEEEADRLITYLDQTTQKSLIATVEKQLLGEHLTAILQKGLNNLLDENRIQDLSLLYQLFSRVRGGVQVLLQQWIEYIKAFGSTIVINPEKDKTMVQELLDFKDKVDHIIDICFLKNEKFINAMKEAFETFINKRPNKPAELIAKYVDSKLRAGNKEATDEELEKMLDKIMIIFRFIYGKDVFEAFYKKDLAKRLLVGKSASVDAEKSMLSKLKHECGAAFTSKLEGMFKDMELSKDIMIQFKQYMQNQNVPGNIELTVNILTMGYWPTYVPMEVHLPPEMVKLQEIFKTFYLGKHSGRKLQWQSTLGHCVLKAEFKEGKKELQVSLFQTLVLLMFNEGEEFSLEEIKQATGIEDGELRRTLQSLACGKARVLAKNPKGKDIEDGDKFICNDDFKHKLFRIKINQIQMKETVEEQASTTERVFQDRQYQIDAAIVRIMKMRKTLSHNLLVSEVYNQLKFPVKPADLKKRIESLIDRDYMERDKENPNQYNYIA
UniProt P51116: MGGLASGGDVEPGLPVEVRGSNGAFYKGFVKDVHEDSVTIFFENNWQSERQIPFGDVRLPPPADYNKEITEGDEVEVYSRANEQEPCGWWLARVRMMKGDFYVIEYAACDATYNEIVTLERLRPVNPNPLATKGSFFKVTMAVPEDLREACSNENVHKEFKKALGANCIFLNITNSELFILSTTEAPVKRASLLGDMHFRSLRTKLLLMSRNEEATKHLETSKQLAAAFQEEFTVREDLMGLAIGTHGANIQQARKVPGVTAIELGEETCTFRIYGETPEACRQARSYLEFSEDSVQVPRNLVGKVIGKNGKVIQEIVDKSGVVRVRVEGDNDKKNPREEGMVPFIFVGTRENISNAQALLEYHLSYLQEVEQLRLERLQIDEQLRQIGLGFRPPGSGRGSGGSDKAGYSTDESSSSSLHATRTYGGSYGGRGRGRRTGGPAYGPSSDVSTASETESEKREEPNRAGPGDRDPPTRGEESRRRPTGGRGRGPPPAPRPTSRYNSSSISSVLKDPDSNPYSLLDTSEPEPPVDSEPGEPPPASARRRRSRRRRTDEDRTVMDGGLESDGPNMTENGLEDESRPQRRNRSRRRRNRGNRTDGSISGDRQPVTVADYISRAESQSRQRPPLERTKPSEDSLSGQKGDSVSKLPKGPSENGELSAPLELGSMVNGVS
UniProt P04818: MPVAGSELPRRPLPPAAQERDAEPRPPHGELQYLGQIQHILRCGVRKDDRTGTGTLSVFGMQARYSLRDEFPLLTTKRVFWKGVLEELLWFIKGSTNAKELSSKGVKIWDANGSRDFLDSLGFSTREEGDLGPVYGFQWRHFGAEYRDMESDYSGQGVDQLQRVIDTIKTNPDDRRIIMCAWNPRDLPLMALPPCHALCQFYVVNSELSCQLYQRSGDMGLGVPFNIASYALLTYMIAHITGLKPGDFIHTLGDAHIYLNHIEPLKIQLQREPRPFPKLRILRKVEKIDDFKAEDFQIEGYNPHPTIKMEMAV
UniProt O43670: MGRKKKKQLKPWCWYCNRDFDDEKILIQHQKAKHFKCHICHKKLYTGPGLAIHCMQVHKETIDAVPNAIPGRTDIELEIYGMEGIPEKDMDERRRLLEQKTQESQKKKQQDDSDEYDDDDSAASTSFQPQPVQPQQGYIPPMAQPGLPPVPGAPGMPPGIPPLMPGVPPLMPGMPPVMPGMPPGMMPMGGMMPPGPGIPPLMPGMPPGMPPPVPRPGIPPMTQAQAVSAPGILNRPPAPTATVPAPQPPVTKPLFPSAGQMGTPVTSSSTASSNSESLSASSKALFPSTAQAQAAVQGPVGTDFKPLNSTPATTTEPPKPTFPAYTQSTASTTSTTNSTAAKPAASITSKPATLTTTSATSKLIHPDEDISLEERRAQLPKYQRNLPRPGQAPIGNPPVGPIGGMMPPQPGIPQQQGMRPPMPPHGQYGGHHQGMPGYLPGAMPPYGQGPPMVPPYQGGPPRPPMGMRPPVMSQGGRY
UniProt Q9Y265: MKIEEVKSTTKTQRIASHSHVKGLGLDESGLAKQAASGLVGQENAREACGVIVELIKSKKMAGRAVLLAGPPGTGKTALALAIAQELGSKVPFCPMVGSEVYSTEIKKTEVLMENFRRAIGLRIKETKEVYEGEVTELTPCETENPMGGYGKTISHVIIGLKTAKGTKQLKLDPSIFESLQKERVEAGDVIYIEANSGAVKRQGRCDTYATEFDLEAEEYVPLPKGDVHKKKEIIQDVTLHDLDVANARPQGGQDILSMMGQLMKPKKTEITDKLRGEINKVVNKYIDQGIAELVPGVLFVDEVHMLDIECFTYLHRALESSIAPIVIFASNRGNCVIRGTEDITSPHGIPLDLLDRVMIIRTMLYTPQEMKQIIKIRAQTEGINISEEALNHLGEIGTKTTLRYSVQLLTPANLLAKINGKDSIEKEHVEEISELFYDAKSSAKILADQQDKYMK
UniProt Q96I24: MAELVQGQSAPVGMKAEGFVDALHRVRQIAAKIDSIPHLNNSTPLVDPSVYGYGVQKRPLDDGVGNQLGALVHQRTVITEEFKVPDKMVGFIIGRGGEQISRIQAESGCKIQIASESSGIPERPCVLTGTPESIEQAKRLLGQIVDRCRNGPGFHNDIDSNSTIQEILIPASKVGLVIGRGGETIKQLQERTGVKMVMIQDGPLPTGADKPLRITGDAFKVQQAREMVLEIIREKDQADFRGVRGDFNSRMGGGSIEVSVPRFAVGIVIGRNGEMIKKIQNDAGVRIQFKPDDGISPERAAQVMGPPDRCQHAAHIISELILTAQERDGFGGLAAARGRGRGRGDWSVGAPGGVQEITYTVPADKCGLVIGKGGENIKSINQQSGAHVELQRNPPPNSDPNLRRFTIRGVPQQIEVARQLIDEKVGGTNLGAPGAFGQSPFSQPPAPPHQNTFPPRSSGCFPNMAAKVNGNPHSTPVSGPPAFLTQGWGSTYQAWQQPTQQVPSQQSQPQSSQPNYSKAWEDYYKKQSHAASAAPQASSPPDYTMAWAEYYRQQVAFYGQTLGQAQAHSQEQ
UniProt Q3MHD2: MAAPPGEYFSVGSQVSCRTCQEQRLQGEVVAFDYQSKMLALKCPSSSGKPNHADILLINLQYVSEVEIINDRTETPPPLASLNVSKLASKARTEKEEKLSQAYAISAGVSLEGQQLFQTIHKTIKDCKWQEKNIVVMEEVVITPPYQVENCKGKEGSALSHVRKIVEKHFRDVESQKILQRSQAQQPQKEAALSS

Where two headings read alike, the source gives them in different places. Results are given in words; binding and its absence hold for the method and conditions named. In cells and extracts the contact can be indirect. Here binding means that the protein was enriched with, or labelled near, the bait; the list need not be complete.

Assay [1] concerns the target BAG3 (BCL-2-associated athanogene 3) (human (endogenous in HEK293T)) (UniProt O95817). As to the kind of experiment: affinity purification with mass spectrometry; endogenous BAG3 immunoprecipitated with anti-BAG3 antibody and Protein A/G magnetic beads from HEK293T lysate; cells treated with DMSO (basal) or 10 µM MG132 for 6 h; IgG IP (MG132_IgG) as control; label-free quantification, three biological replicates.

Assay [2] shares this target. The assay is described as above. The source holds these as a separate data set.

Consider “Staphylococcal nuclease domain-containing protein 1 (from UniProt Q7KZF4 1-910)”, for which the binding entry in assay [1] is listed as “binds”.
Still for that read-out and setting: with LARP4 (from UniProt Q71RC2 1-724) the entry was “binds”; with POLD1 (from UniProt P28340 1-1107), “binds”.
The same measure, in the same setting: with CACNA2D1 (from UniProt P54289 25-1103) the entry was “binds”; with “RPA-related protein RADX (CXorf57) (from UniProt Q6NSI4 1-855)”, “binds”; with “26S proteasome non-ATPase regulatory subunit 12 (from UniProt O00232 1-456)”, “binds”.
On the same count and under the same terms, with “multiubiquitin chain receptor RAD23B (from UniProt P54727 1-409)” the entry was “binds”; with EIF4G2 (from UniProt P78344 1-907), “binds”.
vimentin (from UniProt P08670 1-466): the binding entry in assay [1] was “binds”.
In the case of CCNB2 (from UniProt O95067 1-398), the binding entry in assay [1] is given as “binds”.
On the same count and under the same terms, with “tumor suppressor protein p53 (TP53) (from UniProt P04637 1-393)” the entry was “binds”; with “Coiled-coil domain-containing protein 22 (from UniProt O60826 1-627)”, “binds”.
The same measure, in the same setting: for TUBGCP2 (from UniProt Q9BSJ2 1-902) the value was “binds”; for CUL4B (from UniProt Q13620 1-913), “binds”.
Same read-out and setting: with FXR2 (from UniProt P51116 1-673) the entry was “binds”; with TYMS (from UniProt P04818 1-313), “binds”.
With TUBGCP4 (from UniProt Q9UGJ1 1-667), the binding result in assay [1] is given as “binds”.
As to ZNF207 (from UniProt O43670 1-478), the binding entry in assay [1] is “binds”.
For CNOT10 (from UniProt Q9H9A5 1-744), the binding result in assay [1] was “binds”.
On the same count and under the same terms, with CYFIP2 (from UniProt Q96F07 1-1278) the entry was “binds”; with RUVBL1 (from UniProt Q9Y265 1-456), “binds”; with “Far upstream element-binding protein 3 (from UniProt Q96I24 1-572)”, “binds”.
For the molecule “importin subunit KPNA1 (from UniProt P52294 1-538)”, the binding result in assay [1] is on record as “binds”.
Consider “Protein LSM12 homolog (from UniProt Q3MHD2 1-195)”, for which the binding entry in assay [1] is “binds”.

B1: BAG4 (protein, UniProt O95429 1-457)
chain: MSALRRSGYGPSDGPSYGRYYGPGGGDVPVHPPPPLYPLRPEPPQPPISWRVRGGGPAETTWLGEGGGGDGYYPSGGAWPEPGRAGGSHQEQPPYPSYNSNYWNSTARSRAPYPSTYPVRPELQGQSLNSYTNGAYGPTYPPGPGANTASYSGAYYAPGYTQTSYSTEVPSTYRSSGNSPTPVSRWIYPQQDCQTEAPPLRGQVPGYPPSQNPGMTLPHYPYGDGNRSVPQSGPTVRPQEDAWASPGAYGMGGRYPWPSSAPSAPPGNLYMTESTSPWPSSGSPQSPPSPPVQQPKDSSYPYSQSDQSMNRHNFPCSVHQYESSGTVNNDDSDLLDSQVQYSAEPQLYGNATSDHPNNQDQSSSLPEECVPSDESTPPSIKKIIHVLEKVQYLEQEVEEFVGKKTDKAYWLLEEMLTKELLELDSVETGGQDSVRQARKEAVCKIQAILEKLEKKGL
For B1, in assay [2], the binding result is on record as “binds”.

B2: BAG family molecular chaperone regulator 5 (protein, UniProt Q9UL15 1-447)
chain: MDMGNQHPSISRLQEIQKEVKSVEQQVIGFSGLSDDKNYKKLERILTKQLFEIDSVDTEGKGDIQQARKRAAQETERLLKELEQNANHPHRIEIQNIFEEAQSLVREKIVPFYNGGNCVTDEFEEGIQDIILRLTHVKTGGKISLRKARYHTLTKICAVQEIIEDCMKKQPSLPLSEDAHPSVAKINFVMCEVNKARGVLIALLMGVNNNETCRHLSCVLSGLIADLDALDVCGRTEIRNYRREVVEDINKLLKYLDLEEEADTTKAFDLRQNHSILKIEKVLKRMREIKNELLQAQNPSELYLSSKTELQGLIGQLDEVSLEKNPCIREARRRAVIEVQTLITYIDLKEALEKRKLFACEEHPSHKAVWNVLGNLSEIQGEVLSFDGNRTDKNYIRLEELLTKQLLALDAVDPQGEEKCKAARKQAVRLAQNILSYLDLKSDEWEY
In the case of B2, the binding result in assay [2] is reported as “binds”.

B3: N-terminal kinase-like protein (protein, UniProt Q96KG9 1-808)
chain: MWFFARDPVRDFPFELIPEPPEGGLPGPWALHRGRKKATGSPVSIFVYDVKPGAEEQTQVAKAAFKRFKTLRHPNILAYIDGLETEKCLHVVTEAVTPLGIYLKARVEAGGLKELEISWGLHQIVKALSFLVNDCSLIHNNVCMAAVFVDRAGEWKLGGLDYMYSAQGNGGGPPRKGIPELEQYDPPELADSSGRVVREKWSADMWRLGCLIWEVFNGPLPRAAALRNPGKIPKTLVPHYCELVGANPKVRPNPARFLQNCRAPGGFMSNRFVETNLFLEEIQIKEPAEKQKFFQELSKSLDAFPEDFCRHKVLPQLLTAFEFGNAGAVVLTPLFKVGKFLSAEEYQQKIIPVVVKMFSSTDRAMRIRLLQQMEQFIQYLDEPTVNTQIFPHVVHGFLDTNPAIREQTVKSMLLLAPKLNEANLNVELMKHFARLQAKDEQGPIRCNTTVCLGKIGSYLSASTRHRVLTSAFSRATRDPFAPSRVAGVLGFAATHNLYSMNDCAQKILPVLCGLTVDPEKSVRDQAFKAIRSFLSKLESVSEDPTQLEEVEKDVHAASSPGMGGAAASWAGWAVTGVSSLTSKLIRSHPTTAPTETNIPQRPTPEGVPAPAPTPVPATPTTSGHWETQEEDKDTAEDSSTADRWDDEDWGSLEQEAESVLAQQDDWSTGGQVSRASQVSNSDHKSSKSPESDWSSWEAEGSWEQGWQEPSSQEPPPDGTRLASEYNWGGPESSDKGDPFATLSARPSTQPRPDSWGEDNWEGLETDSRQVKAELARKKREERRREMEAKRAERKVAKGPMKLGARKLD
As to B3, the binding result in assay [2] is given as “binds”.
